# The whole screen tested about 31,000 sequences, of which about 1,400 (4.5%) were called active.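 Rule for the calls: active = median seed-adjusted z-score above 1 or below -1; inactive = the rest.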 The list shows a part of the results.
# Assay: Novel Modifiers of Survival Motor Neuron (SMN) Protein: Gene Identification via Genome-wide siRNA Screen;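 note: luminescence tracks full-length SMN protein made from the SMN2 reporter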
# Details: HEK293T SMN2-luciferase reporter, siRNA knockdown, 72 h; actives lie on both sides
# How it was run: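 Genome-wide siRNA screen (10418 genes, 3 siRNAs each, 1 pmol per well) by reverse transfection in HEK293T cells stably carrying an SMN2-luciferase reporter; luminescence after 72 hours, normalized to negative-control siRNA, log10-transformed, MAD-scored.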
row,Sequence,median seed-adjusted z-score
1,GGCUCGUGGAGGUAACAUUTT against VCP,inactive: -0.808
2,CUUUUAAUCAGCAAUCAAATT against ZNF600,inactive: 0.252
3,CGCCUUUGAUAAGUAUAGATT against C1GALT1C1,inactive: 0
4,CUCUUAUCAUUGAUGGUUUTT against PIAS3,inactive: -0.216
5,CAAUGAUCAGCUCAAUACATT against SPG3A,inactive: 0.203
6,GUGGGCGUGCUAUAAGUGATT against GPR78,inactive: 0.607
7,GGCUUGAUCAGGUCCAUAATT against BCO2,inactive: -0.183
8,GGAUCUCCAUCCACAUACATT against MYLK3,inactive: 0.316
9,GGCCGUGCAUUAUCCGCAATT against LOC100137047-PLA2G4B,inactive: -0.022
10,AGGGCUUCUUGAAUCUCUATT against GSTO2,inactive: 0.142
11,CACUGUAUGUCAUUCCCAATT against ACPL2,inactive: 0.0392
12,CCCUCAAUAUUUUACCUGATT against P2RY1,inactive: -0.844
13,GAUCGUGUCUCAAUCCAUUTT against TINAGL1,inactive: -0.059
14,GAACUUCACUUAUUACUGATT against PCDHA1,inactive: -0.013
15,CCCAUCCUGUUGUGACCAATT against LIMD2,inactive: 0.418
16,GCUUUGCAGUUACACGUGUTT against CTCF,inactive: -0.0821
17,CGAUGAGUUUGGGACUUCATT against ZFP36L2,inactive: -0.0485
18,GGUUCUCCCUAGUCAAUGATT against CDH16,inactive: -0.209
19,CGGAAGCUAUGACUUAUGATT against SELE,inactive: 0.469
20,GAGCAUGGUUCAGAACAUATT against CA1,inactive: 0.262
21,GCAGAUGCUUUAGGACCUATT against UMPS,inactive: 0.191
22,ACCAGAAACUAGAACGUGATT against CAMK2G,inactive: -0.107
23,CAGCGAGUGUAGGAAAGCATT against ZNF84,inactive: -0.246

# Quoted from the listing (3 entries):
row,Sequence,median seed-adjusted z-score
6,GUGGGCGUGCUAUAAGUGATT against GPR78,inactive: 0.607
7,GGCUUGAUCAGGUCCAUAATT against BCO2,inactive: -0.183
8,GGAUCUCCAUCCACAUACATT against MYLK3,inactive: 0.316

# More records:

row,Sequence,median seed-adjusted z-score
1,CAAACAUCUAUGCAGCAAATT against MS4A8B,inactive: 0.207
2,GGUCAGCGGAUUAAACAAATT against HNRPK,inactive: 0.296
3,GAAGCAGAUUUUAGAUGAATT against NF2,inactive: -0.543
4,GAAUUUAAGCUGCAGCAGATT against RARRES2,inactive: -0.125
5,GGCUCCUUAUUAUAACUAUTT against CTBS,inactive: 0.0442
6,CCGUGUUCAUCUCCAGUUATT against SPNS1,inactive: -0.0598
7,CAUUUGCGGUUCGGACAAATT against CACNB2,inactive: 0
8,CACCAUUCCAAAUAACUUATT against PCBP1,inactive: 0.124
9,GGCACACGCUCUUGGAAUATT against IL4I1,inactive: -0.441
10,GGCUCAAUUCAUCCCUUAATT against ZNF607,inactive: 0.857
11,UCAACUGCCUUAUAACAUUTT against CCRL1,inactive: -0.347
12,CCGAUGCCCUAUUACCACATT against CUBN,inactive: 0.0558
13,GCGUUAUCCUCACCUUCAATT against G6PD,inactive: 0.593
14,GAACUCUCGUGUUACUCAATT against ANGPTL1,inactive: -0.556
15,GGUUGUCGUGGUUCCAUCATT against HSD17B8,inactive: 0.411
16,GGCGAUUCAACAUUAACGATT against TFE3,inactive: -0.0442
17,AGUGUGAUGUGACAGCCCATT against MATK,inactive: -0.754
18,CUAAAAGUCUUGCUCCAAUTT against BDKRB1,inactive: 0.448
19,CGGUACAGGUGGUCAUCAATT against DDX49,inactive: 0.0816
20,GCCGCGAAAUCACCAAGAUTT against NDN,inactive: -0.146
21,GGGUUGAAGGUGAUCAUCATT against IMMP2L,inactive: 0.919
22,CCAUCUAUCAGAUUGAGCATT against TP63,inactive: -0.129
23,CAAACCCUGCGGCACACUATT against ADAMTS10,inactive: 0.856

row,Sequence,median seed-adjusted z-score
1,CACCUGCCGUGGUCUAUAUTT against HTRA2,inactive: -0.503
2,GCCUUUACCCAAAAAUCAATT against ZNF182,inactive: 0
3,GGAACGAGAUUGUCAGAUUTT against POLR2B,active: -4.81
4,CAAGCACUCUGGUUUAACATT against BAZ2A,inactive: 0.73
5,GCAUAUUCUUUGAGUUAUATT against RHAG,inactive: -0.212
6,CCAAAGCCGCUACCAAGUUTT against PCDH21,inactive: -0.528
7,CGGUCAAGUUCGACAAGCATT against CHD5,inactive: -0.195
8,GGGUGGAAGCGGUAACAAATT against NOS2A,inactive: 0.419
9,GUAUUAUACUCGGAUAACATT against PSMD12,inactive: 0.956
10,CAAGGAGUUUUACCCAGUATT against CYP4Z1,inactive: -0.139
11,GAUGAGUCAAGGACCUACATT against FAM53B,inactive: -0.00535
12,AGAUGAUCGUGAGUCAGCUTT against LITAF,inactive: 0.0771
13,AGAUCAAGGUACCCUUUGATT against ATHL1,inactive: 0
14,GGCUGUGAAUAAUAUAGCUTT against BTF3L4,inactive: 0.143
15,GCUUCAUUCUGAUGUAUGATT against RAB3B,inactive: -0.705
16,AGAUACUUACAUAGUUUUUTT against NACA,inactive: 0.117
17,GUGUCUUACUGGUGGAUGATT against PTGER4,inactive: -0.289
18,GUUCAUGAAAGAUCGGUUATT against CDC14A,inactive: 0.117
19,GGAAUGCUGCAUCAAUAGATT against BTBD1,inactive: 0.0192
20,GCAAAGGCACUGAAUCGAATT against MAP4K5,inactive: -0.309
21,GGAAUUAUUACAAGGUAAATT against EIF3E,inactive: 0.549
22,CGUGGGCUCUAUCUACUAUTT against PUF60,active: 2.26
